In US20110091945A1, “METHODS OF INCREASING BIOMASS PRODUCTIVITY, LIPID INDUCTION, AND CONTROLLING METABOLITES IN ALGAE FOR PRODUCTION OF BIOFUELS USING BIOCHEMICAL STIMULANTS” (priority 2009, published 2011):
Where “and” joins values, the source holds several entries; their conditions need not be identical. Equal values may be shown once.

System: Chlorella sorokiniana
Assay: Malathion twelve day growth study: pH of the growth medium
Assay type: cell-based, Chlorella sorokiniana (UTEX 2805)

With CCOC(=O)CC(SP(=S)(OC)OC)C(=O)OCC (stereo not drawn) [malathion, 2-(dimethoxyphosphinothioylthio)butanedioic acid diethyl ester] as the compound, how does the “maximum pH value of the growth medium” value (70 mg malathion L^−1, by day 6) read?
The value was “about 9.5”.

What about the “pH of the growth medium” value (140 mg malathion L^−1, day 12) of the same compound?
Its value is 9.6 and 9.23.

What about the “pH of the growth medium” value (280 mg malathion L^−1, day 3, 6, 9 and 12) of the same compound?
The value was “below 7”.
